One molecule from patent US10369195B2, “Methods and compositions for preventing and treating damage to the heart” (MandalMed, Inc., priority 2016, dated 2019) can be followed below.

The data set concerns IL-6. Kind of data set: ELISA of IL-6 in plasma of rats with ischemia-reperfusion injury. It counts as in vivo, rat. The settings on record: 28 days. On the procedure: The levels of the inflammatory cytokines, interleukin (IL)-1β and IL-6, were determined in the plasma of control rats and rats with ischemia-reperfusion injury at 2 days (FIG. 4) and 28 days (FIG. 5) post-injury using ELISA kits according to the instructions of the vendor (Pierce ThermoFisher).
The levels of the inflammatory cytokines, IL-1β and IL-6, were determined in the plasma of sham control rats and rats with ischemia-reperfusion injury at 28 days post-injury (FIG. 5) using ELISA kits as described in Example 2 above.

B1: Gal-3C: N-terminally truncated form of full length galectin-3, lacking the amino-terminal domain but retaining carbohydrate binding ability; 143 carboxy-terminal residues, SEQ ID NO: 3 (protein)
chain: GAPAGPLIVPYNLPLPGGVVPRMLITILGTVKPNANRIALDFQRGNDVAFHFNPRFNENNRRVIVCNTKLDNNWGREERQSVFPFESGKPFKIQVLVEPDHFKVAVNDAHLLQYNHRVKKLNEISKLGISGDIDITSASYTMI
For the molecule B1, the “IL-6 plasma level vs delayed PBS controls” value (delayed window, 600 μg/d) is on record as “did not have a significant effect”. Further, where the note is “early window, 200 or 600 μg/day”, the “IL-6 plasma level vs PBS-only controls” value is listed as “significantly reduced”.
